# Assay results: the supplement of paper PMC5949888
# Most values lie at the floor of the assay. Slopes are relative: functional sequences can read slightly below zero.
# Test system: Saccharomyces cerevisiae PS128 hsf1 delta, HSF1(1-493) fusion
# Experiment: growth estimate (transactivation domain function in HSF1 fusion, heat-shock survival) (a.u. (slope of normalised read count over time)); higher = stronger growth at 37°C, i.e. more transactivation activity
# Conditions: library: random library
row,Substance,growth estimate
1,ELSTLLCMRWNLASRSSLSL,< -0.25
2,YSMLGRSVIRLCAVLRSLIA,< -0.25
3,RLRDYTIQDG,< -0.25
4,EKRQVLRFGAGGRFSLSARR,-0.245
5,REDR,< -0.25
6,RGNPG,< -0.25
7,ELQ,< -0.25
8,ARSEWKPLEPAKGCMSRFLV,< -0.25
9,AIEIWHFGSASGGPPRGGTA,0.0022
10,DGHELDWFPTT,< -0.25
11,GDFL,< -0.25
12,LPGEETLFEALNSNVSF,< -0.25
13,TRNETAISLVRLWGLRKPPR,< -0.25
14,IYRVVY,< -0.25
15,WISSIRHGRVGNFDITQRPL,< -0.25
16,RTREADGRVRTVKGILVKRR,< -0.25
17,PKRGEGGATVAFMRPIYKGT,< -0.25
18,GWQSPATAGYFAPRTTSLLV,< -0.25
19,LMVDHFWSGPYLGVMDRWPA,-0.149
20,WLSEDAEQRASQRLAWLKFD,< -0.25
21,VYKRR,< -0.25
22,HRCKVGVSWLCLRPG,< -0.25
23,SIQGEFRMHAGDRVSNRKYQ,< -0.25
24,GSVLREGRHLRCKPPLGYSH,< -0.25
25,FILCLTDDIRLFGKEPRSGA,< -0.25

row,Substance,growth estimate
1,YRSEISIERRSRHRTSIEPG,-0.231
2,LWERL,< -0.25
3,FWRHRPPI,< -0.25
4,TFGCMKAKYYHYQA,< -0.25
5,SKLTLRV,< -0.25
6,KTTPHFGARIQQALEDSQRR,< -0.25
7,RRAGTMSGQLQGILIPNAAN,< -0.25
8,LLGNKMLARPVCELATMGVR,-0.192
9,EGA,< -0.25
10,KNDKLVKSLCAGARSTGILG,< -0.25
11,AWAIISGGNVCKNGMGVPHL,< -0.25
12,SFRAVRSLGPFSLSTGSRGG,< -0.25
13,EVIALACVQGSPCTHILAWQ,< -0.25
14,PLRIPPLQLK,-0.246
15,WKMCRCYIAMYQGRLLGIPA,< -0.25
16,PSVCPMKAVKLV,< -0.25
17,PAWIAFECLDDLGGVDWLVA,< -0.25
18,EGTLIGPYLNEVHRLEPTDF,< -0.25
19,RRLIATESPVILRSHIPLRA,< -0.25
20,WRWVPKMFWSLFICSVIQKK,< -0.25
21,LEGCVSPGASLRARNWFTSP,< -0.25
22,CTTRVR,< -0.25
23,RIRKGSRAFRQCVGFLGSTR,< -0.25
24,RKRSIAGLVLIIAICVVSSG,< -0.25
25,ARRHGER,< -0.25

row,Substance,growth estimate
1,GPRGRHILEGS,< -0.25
2,GTSGKSCYP,< -0.25
3,LRSTDLVRDVHVG,< -0.25
4,FCHILPRFGPRLLHLSWI,< -0.25
5,YELWEHYRCGP,-0.226
6,LVTWGGGLRLLIIGHEVDGL,< -0.25
7,GFEHLVFEGVSHIFSFTPRI,< -0.25
8,TVPYILHPITRFPLTLWWCP,< -0.25
9,GILSRLRAWSSQSIGTGGLI,< -0.25
10,TRSAVGLGVTGLAGGATLRR,< -0.25
11,LAGRS,0.249
12,SQRSGVPAVRVCARSPRTED,< -0.25
13,KNRPYRPGISMTAPSYNADL,< -0.25
14,DIQARCN,< -0.25
15,DFPIARDSECIRFAFCFSVC,< -0.25
16,GRQGYIPPCTWTNPVDYGGV,< -0.25
17,RIMI,< -0.25
18,PGSVGACLQSQCPGSKL,< -0.25
19,NPRWRVPLTWEKVSRRESTY,< -0.25
20,SLVP,< -0.25
21,VTKYIHSPSLTSPLWLYVSA,< -0.25
22,KHLLPSRPICSPSHLL,-0.246
23,RLFNNGWAR,< -0.25
24,WITNKRQDSPFGAMRGLCR,< -0.25
25,GRWVGGKTTAKDSSLAAGGG,< -0.25

row,Substance,growth estimate
1,GFFTWRIQRR,< -0.25
2,SMGDSSRARFL,-0.0026
3,TSRLRTL,< -0.25
4,KLPLKIDSAGLEEDLYG,< -0.25
5,SAKSGPTA,-0.243
6,RTGTPKQPVSISFPSRFSPR,< -0.25
7,LMPSEVRVSMTSRRDMFVRF,< -0.25
8,VFNY,< -0.25
9,GER,< -0.25
10,QYTRGDPLRQNVTEHPTLSM,< -0.25
11,FKNYRAT,< -0.25
12,HEG,< -0.25
13,TGKGVEVGFEINCLKYVPAS,< -0.25
14,LYTLLTIKDLPRGGSGQN,< -0.25
15,MLIYNV,< -0.25
16,DTGSAEIIYAIACPPDVVAA,< -0.25
17,ARIGAC,< -0.25
18,SDYTCELNHD,< -0.25
19,TGGYRRDRHPSGELDIHRPK,< -0.25
20,MNILGDGASAINDVLSYSVT,< -0.25
21,NPEAANTPGWSNYGLTGVRP,< -0.25
22,WRFTN,< -0.25
23,SIRFSRVDSCAQ,< -0.25
24,PPRLAGDGSEHTTGGNAVSR,< -0.25
25,RLPGAGICGWA,-0.184

row,Substance,growth estimate
1,ASRNSSVSNPPNGLGA,< -0.25
2,VLAVGCTMVAHWVATITAGV,< -0.25
3,TCNVRGMPQR,< -0.25
4,IRGVETNPRVGSHRRRYRLV,< -0.25
5,RERINDWPWTPKAVIRVGKP,< -0.25
6,SLSACQDPPACERDPARREL,< -0.25
7,LDFG,< -0.25
8,CRAEAVPLVHGELSPRVIVG,< -0.25
9,CPSFAPTKSAGWL,< -0.25
10,ITETLQANSWTASTCPLAPW,-0.235
11,RMSPGVGSFIVYSIRYRWGI,< -0.25
12,VDNNRDGSLGMEVMEIRKHV,< -0.25
13,ISTHPVDCGHALYHGARRS,< -0.25
14,RLRENCFWYRIVGGTTS,< -0.25
15,SASYRWSASPQVGSLF,< -0.25
16,YKPAESSTCNKERRTPGICN,< -0.25
17,TVGRKDHRSGSDRRCSQLS,< -0.25
18,KVDSPGDGVVAITTRAPPHG,-0.145
19,QLVNSASEPIRRMVSVILIT,< -0.25
20,NHPLSGKSTRSLACTPGWYG,< -0.25
21,FRMFPAYL,< -0.25
22,HTATAVRRVLSKRQALERGC,< -0.25
23,QPVRLRSPS,< -0.25
24,IDSY,< -0.25
25,QCGSSTVCRCRVSTNRGKSG,< -0.25

# Random excerpt: six records from the list
row,Substance,growth estimate
16,YKPAESSTCNKERRTPGICN,< -0.25
2,VLAVGCTMVAHWVATITAGV,< -0.25
4,IRGVETNPRVGSHRRRYRLV,< -0.25
7,LDFG,< -0.25
10,ITETLQANSWTASTCPLAPW,-0.235
19,QLVNSASEPIRRMVSVILIT,< -0.25

# Next results follow.

row,Substance,growth estimate
1,KKRGVTNLSLEARQMKRSGR,< -0.25
2,SSFNAASCPMCGLLMGKSPP,< -0.25
3,VAACLFVAQGCRLIS,< -0.25
4,RHRES,< -0.25
5,PHAEDKSKSRECWLGECVWD,-0.23
6,SVQGQKRNLPAWFTATPVAA,< -0.25
7,MSRKPVIYSCTRGQD,< -0.25
8,TKWLP,< -0.25
9,KRQNGLEVSVTSHVQCLLRQ,< -0.25
10,WPARCARAEGPIEHTTKTQG,< -0.25
11,GVRRRY,< -0.25
12,PKVIYLVS,< -0.25
13,RVRFGSCAAVFCLTLYWRI,< -0.25
14,AERTRKVIRASRTDGRRKRE,< -0.25
15,VASGRWSI,< -0.25
16,QRPKV,-0.246
17,STTGIQGR,< -0.25
18,SYVGVDDETGG,< -0.25
19,KKHKHRVELPSHLIAIVATH,< -0.25
20,YLTSYSRP,< -0.25
21,IAIIIFTNNDC,< -0.25
22,SDYRVTSACIEPGGNCGLKR,< -0.25
23,RTPRDMIG,< -0.25
24,SRFQ,< -0.25
25,MVWLWDPTRGLLLAWRHARR,< -0.25

# Given tab-delimited: part of the list above.
row	Substance	growth estimate
17	RIMI	< -0.25
3	VAACLFVAQGCRLIS	< -0.25

# Additional records

row,Substance,growth estimate
1,MYPPRGVSFVYLALGRDSCY,< -0.25
2,FMEPE,< -0.25
3,LDKRDMSVDAVSVNVDIDLR,< -0.25
4,LDIHRRDNPSGSVVRDPKTT,< -0.25
5,HDIFEHSSAATGTLTTDQ,< -0.25
6,VWSAKFGFSYECRHSASAVF,< -0.25
7,IFVGWVGYVKYESKEHSCTQ,-0.221
8,RGTQGCRSKRLE,< -0.25
9,QITPISALCNIKPLTCAGRM,< -0.25
10,TRII,< -0.25
11,WITW,< -0.25
12,DLGGQAEI,< -0.25
13,GQEFINGLRSEIWMEPSASR,< -0.25
14,RCMHSCVCIRLNSVERTAVY,< -0.25
15,FLLWASCTECGCRLSAGVSL,< -0.25
16,GASPLVVEGDHIMGSCEISR,< -0.25
17,GSRTAVSKRESTCSVSVS,< -0.25
18,WTCDNGV,< -0.25
19,QSLRKRACHTEYRIIE,< -0.25
20,YNSGVGGPCSLLLHRSLEHS,< -0.25
21,NFQIHFRIVIIYMFYHPVRT,< -0.253
22,FVGWARREWGRATLHLHG,< -0.25
23,IKYTEQRGWTDYNSSAVHAD,< -0.25
24,LWAPWQQNIGDASQAPAHTS,< -0.25
25,YHS,< -0.25

# A different layout for some results above.
row	Substance	growth estimate
8	RGTQGCRSKRLE	< -0.25
9	QITPISALCNIKPLTCAGRM	< -0.25
10	TRII	< -0.25
11	WITW	< -0.25

# The results go on:

row,Substance,growth estimate
1,YIITFFPRWPCVVLFHDCLP,< -0.25
2,LVPDLAYFRAGARPHNVSGA,< -0.25
3,RANLVLSRANAAYRTTALTN,< -0.25
4,IVMGKNSELHFCNKVHARPI,< -0.25
5,KYLSKVQ,< -0.25
6,FESAMFRAPAADP,< -0.25
7,QVPGECEATDWAVSNRPRSA,< -0.25
8,RRLSKCNLY,< -0.25
9,KRRGIH,< -0.25
10,RSHPRESGVAAGERHIQGKS,< -0.25
11,HHSIEPGL,< -0.25
12,DCKNRIRTGRNKACVVRSHH,< -0.25
13,CMILPMSIVEQKD,< -0.25
14,MYGPPTSHLVR,< -0.25
15,ALRVMGLGGARY,< -0.25
16,VVDREGFSKEFSKSCMGPAL,< -0.25
17,TASSALGVFGVKANLLSSSR,< -0.25
18,TRGQLHKALMNMMILWGPPF,< -0.25
19,GCGRG,< -0.25
20,VHEPNLFYAQCKSYPQVWSL,< -0.25
21,LPLTLTHVLLISK,< -0.25
22,CHMMIPV,< -0.25
